# Measured values reported in article doi:10.1101/2024.06.17.598829 (bioRxiv, 2024).
# Changes are numbered by the printed parent chain. Results are given in words; binding and its absence hold for the method and conditions named. Binding seen in cells or lysates may run through a third protein. Some entries that bind do so weakly or less than the wild type. For some of these results: Where a sequence is shown, tags or fusion partners need not be part of it.
# T1: NON-PHOTOTROPIC HYPOCOTYL 3 (NPH3), fluorophore-tagged, expressed in N. benthamiana (Arabidopsis thaliana) (UniProt Q9FMF5)
# T1 sequence: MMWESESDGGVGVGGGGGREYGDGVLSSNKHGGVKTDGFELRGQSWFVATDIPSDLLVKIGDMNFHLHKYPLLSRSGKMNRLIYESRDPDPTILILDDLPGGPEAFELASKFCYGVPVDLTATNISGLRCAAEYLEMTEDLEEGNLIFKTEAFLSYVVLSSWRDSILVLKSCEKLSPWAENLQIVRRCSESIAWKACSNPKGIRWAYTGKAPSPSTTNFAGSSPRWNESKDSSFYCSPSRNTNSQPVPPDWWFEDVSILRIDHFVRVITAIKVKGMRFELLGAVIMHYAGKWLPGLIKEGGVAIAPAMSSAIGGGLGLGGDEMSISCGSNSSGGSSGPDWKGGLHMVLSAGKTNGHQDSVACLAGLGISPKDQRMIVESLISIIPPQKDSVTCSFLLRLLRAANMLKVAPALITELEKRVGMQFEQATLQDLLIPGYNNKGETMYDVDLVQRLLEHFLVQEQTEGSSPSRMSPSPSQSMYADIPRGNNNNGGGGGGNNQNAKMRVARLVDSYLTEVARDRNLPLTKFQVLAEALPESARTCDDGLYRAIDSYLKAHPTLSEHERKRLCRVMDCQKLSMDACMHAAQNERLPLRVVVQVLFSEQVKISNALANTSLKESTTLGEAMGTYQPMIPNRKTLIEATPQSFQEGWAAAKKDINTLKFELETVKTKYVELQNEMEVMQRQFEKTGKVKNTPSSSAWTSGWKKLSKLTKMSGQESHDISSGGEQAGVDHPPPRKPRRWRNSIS
# T2: NPH3ΔC51 (Arabidopsis thaliana) (UniProt Q9FMF5)
# T2 sequence: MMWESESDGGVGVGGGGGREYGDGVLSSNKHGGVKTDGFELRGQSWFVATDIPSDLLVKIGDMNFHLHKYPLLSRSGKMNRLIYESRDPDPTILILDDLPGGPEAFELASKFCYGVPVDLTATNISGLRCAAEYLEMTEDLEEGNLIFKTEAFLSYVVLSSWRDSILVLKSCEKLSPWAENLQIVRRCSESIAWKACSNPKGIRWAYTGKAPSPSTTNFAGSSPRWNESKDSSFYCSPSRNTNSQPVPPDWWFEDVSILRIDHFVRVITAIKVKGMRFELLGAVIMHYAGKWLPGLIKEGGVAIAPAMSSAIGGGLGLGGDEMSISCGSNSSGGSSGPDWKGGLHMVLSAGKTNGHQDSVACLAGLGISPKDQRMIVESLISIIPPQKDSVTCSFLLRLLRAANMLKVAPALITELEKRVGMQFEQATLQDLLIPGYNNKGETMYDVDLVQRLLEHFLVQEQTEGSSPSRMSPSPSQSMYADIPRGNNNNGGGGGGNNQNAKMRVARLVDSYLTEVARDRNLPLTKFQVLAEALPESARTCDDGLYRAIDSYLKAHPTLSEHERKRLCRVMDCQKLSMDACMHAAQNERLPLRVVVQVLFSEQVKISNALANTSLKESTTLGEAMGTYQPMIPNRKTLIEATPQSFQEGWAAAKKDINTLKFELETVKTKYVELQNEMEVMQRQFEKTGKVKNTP
# T3: NPH3_S744A (Arabidopsis thaliana) (UniProt Q9FMF5)
# T3 sequence: T1 sequence with S744A
# B1: NPH3ΔC104 (domain or fragment, UniProt Q9FMF5 1-642)
# chain: MMWESESDGGVGVGGGGGREYGDGVLSSNKHGGVKTDGFELRGQSWFVATDIPSDLLVKIGDMNFHLHKYPLLSRSGKMNRLIYESRDPDPTILILDDLPGGPEAFELASKFCYGVPVDLTATNISGLRCAAEYLEMTEDLEEGNLIFKTEAFLSYVVLSSWRDSILVLKSCEKLSPWAENLQIVRRCSESIAWKACSNPKGIRWAYTGKAPSPSTTNFAGSSPRWNESKDSSFYCSPSRNTNSQPVPPDWWFEDVSILRIDHFVRVITAIKVKGMRFELLGAVIMHYAGKWLPGLIKEGGVAIAPAMSSAIGGGLGLGGDEMSISCGSNSSGGSSGPDWKGGLHMVLSAGKTNGHQDSVACLAGLGISPKDQRMIVESLISIIPPQKDSVTCSFLLRLLRAANMLKVAPALITELEKRVGMQFEQATLQDLLIPGYNNKGETMYDVDLVQRLLEHFLVQEQTEGSSPSRMSPSPSQSMYADIPRGNNNNGGGGGGNNQNAKMRVARLVDSYLTEVARDRNLPLTKFQVLAEALPESARTCDDGLYRAIDSYLKAHPTLSEHERKRLCRVMDCQKLSMDACMHAAQNERLPLRVVVQVLFSEQVKISNALANTSLKESTTLGEAMGTYQPMIPNRKTLIEAT
# B2: NPH3ΔLIP_WLM/E (protein, UniProt Q9FMF5)
# chain: MMWESESDGGVGVGGGGGREYGDGVLSSNKHGGVKTDGFELRGQSWFVATDIPSDLLVKIGDMNFHLHKYPLLSRSGKMNRLIYESRDPDPTILILDDLPGGPEAFELASKFCYGVPVDLTATNISGLRCAAEYLEMTEDLEEGNLIFKTEAFLSYVVLSSWRDSILVLKSCEKLSPWAENLQIVRRCSESIAWKACSNPKGIRWAYTGKAPSPSTTNFAGSSPRWNESKDSSFYCSPSRNTNSQPVPPDWWFEDVSILRIDHFVRVITAIKVKGMRFELLGAVIMHYAGKWLPGLIKEGGVAIAPAMSSAIGGGLGLGGDEMSISCGSNSSGGSSGPDWKGGLHMVLSAGKTNGHQDSVACLAGLGISPKDQRMIVESLISIIPPQKDSVTCSFLLRLLRAANMLKVAPALITELEKRVGMQFEQATLQDLLIPGYNNKGETMYDVDLVQRLLEHFLVQEQTEGSSPSRMSPSPSQSMYADIPRGNNNNGGGGGGNNQNAKMRVARLVDSYLTEVARDRNLPLTKFQVLAEALPESARTCDDGLYRAIDSYLKAHPTLSEHERKRLCRVMDCQKLSMDACMHAAQNERLPSEQVKISNALANTSLKESTTLGEAMGTYQPMIPNRKTLIEATPQSFQEGEAAAKKDINTLKFEEETVKTKYVELQNEMEVEQRQFEKTGKVKNTPSSSAWTSGWKKLSKLTKMSGQESHDISSGGEQAGVDHPPPRKPRRWRNSIS
# Columns and labels:
# [1] = biological target: T1, NON-PHOTOTROPIC HYPOCOTYL 3 (NPH3), fluorophore-tagged, expressed in N. benthamiana (Arabidopsis thaliana); assay: co-IP
# [2] = biological target: NPH3ΔC104 (Arabidopsis thaliana) (UniProt Q9FMF5); assay: co-IP
# [3] = biological target: T2, NPH3ΔC51 (Arabidopsis thaliana); assay: co-IP
# [4] = biological target: T3, NPH3_S744A (Arabidopsis thaliana); assay: FRET or BRET
Binder,binding [1],binding [2],binding [3],binding [4]
B1,binds weakly,binds weakly,binds weakly,
B2,,,,no binding
